Measurements: the supplement of paper PMC4604168 (melanoma cell lines)
The list shows a part of the results. Single values are uncertain, as repeats are few or missing.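 Imaging used 1,536-well plates; nuclei positive for cleaved PARP by antibody were divided by total DNA-stained nuclei to yield the apoptosis fraction. Doses for screening kept most cells viable, and cell lines differ markedly in resting and induced cleaved-PARP levels.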

Experiments:
Experiment in all cases: cleaved PARP positive nuclei fraction relative to DMSO control; melanoma cells; higher = more apoptosis
Details in all cases: library dose: low library concentration; 72 h
[1] = tested on: 501Mel
[2] = tested on: A101D
[3] = tested on: A2058
[4] = tested on: C32
[5] = tested on: CBRC008 (line from a melanoma biopsy)
[6] = tested on: CBRC014 (line from a melanoma biopsy)
[7] = tested on: CBRC016 (line from a melanoma biopsy)
[8] = tested on: CBRC017 (line from a melanoma biopsy)
[9] = tested on: COLO792
[10] = tested on: COLO800
[11] = tested on: COLO829
[12] = tested on: G361
[13] = tested on: IPC-298
[14] = tested on: IST-MEL1
[15] = tested on: LB2518-MEL
[16] = tested on: LOXIMVI

Structure (SMILES)	cleaved PARP positive nuclei fraction [1] [%]	cleaved PARP positive nuclei fraction [2] [%]	cleaved PARP positive nuclei fraction [3] [%]	cleaved PARP positive nuclei fraction [4] [%]	cleaved PARP positive nuclei fraction [5] [%]	cleaved PARP positive nuclei fraction [6] [%]	cleaved PARP positive nuclei fraction [7] [%]	cleaved PARP positive nuclei fraction [8] [%]	cleaved PARP positive nuclei fraction [9] [%]	cleaved PARP positive nuclei fraction [10] [%]	cleaved PARP positive nuclei fraction [11] [%]	cleaved PARP positive nuclei fraction [12] [%]	cleaved PARP positive nuclei fraction [13] [%]	cleaved PARP positive nuclei fraction [14] [%]	cleaved PARP positive nuclei fraction [15] [%]	cleaved PARP positive nuclei fraction [16] [%]
CCN(CC)CCNC(=O)c1c(C)[nH]c(/C=C2\C(=O)Nc3ccc(F)cc32)c1C [sunitinib] + O=C1NC(=O)/C(=C/c2ccc(-c3ccc(F)cc3O)o2)S1 [AS252424] (first compound 0.4 µM, partner dose 1 µM)	97.3	15.9	127	47.3	137	89.8	99.5	89.3	94.1	61.3	31.4	226	101	530	80.4	139
Cn1sc(=O)n(Cc2ccccc2)c1=O + COc1ccc2c(c1)CCC1C2CCC2(C)C(NCCCCCCN3C(=O)C=CC3=O)CCC12 [U73122] (first compound 0.4 µM, partner dose 0.4 µM)	36.6	43.9	134	150	149	96.7	60.9	117	147	25.5	51.8	190	122	94.3	78	292
CC1(C)CCC(c2ccc(Cl)cc2)=C(CN2CCN(c3ccc(C(=O)NS(=O)(=O)c4ccc(N[C@H](CCN5CCOCC5)CSc5ccccc5)c(S(=O)(=O)C(F)(F)F)c4)cc3)CC2)C1 + Cc1cc([N+](=O)[O-])ccc1NS(=O)(=O)c1cc(Cl)ccc1Cl [FH535] (first compound 0.4 µM, partner dose 1 µM)	226	70.4	60.4	1390	1590	3810	627	476	624	67	84.4	362	172	502	268	66.1
CCN(CC)CCNC(=O)c1c(C)[nH]c(/C=C2\C(=O)Nc3ccc(F)cc32)c1C [sunitinib] + CCN(CC)CCCCNc1ncc2cc(-c3cc(OC)cc(OC)c3)c(NC(=O)NC(C)(C)C)nc2n1 [PD173074] (first compound 0.4 µM, partner dose 0.1 µM)	99.5	15.4	214	135	110	93.6	50.6	106	126	94.7	37.5	139	185	62.9	92	33.1
COc1ccc(C2=N[C@@H](c3ccc(Cl)cc3)[C@@H](c3ccc(Cl)cc3)N2C(=O)N2CCNC(=O)C2)c(OC(C)C)c1 [Nutlin-3] + Oc1nc(-c2ccc(C(F)(F)F)cc2)nc2c1CSCC2 [XAV939] (first compound 0.1 µM, partner dose 2 µM)	86	28.4	408	106	184	109	54.6	133	127	78.5	58.5	294	136	99.8	59.5	84.6
C[C@@H](N)c1ccc(C(=O)Nc2ccnc3[nH]ccc23)cc1 + COc1cc2ncnc(Nc3ccc(Oc4ccccc4)cc3)c2cc1OC [SrcI1] (first compound 0.4 µM, partner dose 2 µM)	58	28.7	188	83.8	160	99.8	155	106	111	54.4	112	108	72.4	88.1	45.9	170
C[C@]1(O)C[C@@H](c2nc(-c3ccc4ccc(-c5ccccc5)nc4c3)c3c(N)nccn32)C1 + N#Cc1c(O)c2c(-c3ccc(-c4ccccc4O)cc3)csc2[nH]c1=O [A769662] (first compound 0.4 µM, partner dose 2 µM)	79.1	69.7	69	86.9	463	81.9	39	258	172	258	265	141	97.2	151	77.4	39.1
Cn1cnc2c(F)c(Nc3ccc(Br)cc3Cl)c(C(=O)NOCCO)cc21 [selumetinib] + COC(=O)c1sccc1S(=O)(=O)Nc1ccc(Nc2ccccc2)cc1OC [GSK0660] (first compound 0.015 µM, partner dose 1 µM)	99.1	56.8	146	147	157	90.2	52	114	97.4	44.8	20.7	149	65.7	98.2	228	61.1
CN(c1ncccc1CNc1nc(Nc2ccc3c(c2)CC(=O)N3)ncc1C(F)(F)F)S(C)(=O)=O + COc1ccc2c(c1)CCC1C2CCC2(C)C(NCCCCCCN3C(=O)C=CC3=O)CCC12 [U73122] (first compound 0.08 µM, partner dose 0.4 µM)	81.9	21	81.9	45.4	157	95.1	75.3	77.4	119	61.7	31.8	83.6	92.1	107	73.3	67.5
Cn1sc(=O)n(Cc2ccccc2)c1=O + CCc1ccc(CCOc2ccc(CC3SC(=O)NC3=O)cc2)nc1 [pioglitazone] (first compound 0.4 µM, partner dose 2 µM)	65.4	25.1	52.5	97.9	57.2	89.2	108	82.4	18.4	127	164	70.7	91.7	106	74	476
C[C@@H](N)c1ccc(C(=O)Nc2ccnc3[nH]ccc23)cc1 + COc1cc(N2CCC(N3CCN(C)CC3)CC2)ccc1Nc1ncc(Cl)c(Nc2ccccc2S(=O)(=O)C(C)C)n1 [NVP-TAE684] (first compound 0.4 µM, partner dose 0.08 µM)	117	24.9	73.4	83.9	51.4	104	165	109	90.8	165	198	103	174	86.9	91.2	90.2
Cn1cnc2c(F)c(Nc3ccc(Br)cc3Cl)c(C(=O)NOCCO)cc21 [selumetinib] + CCCCCCCCCCCC1=C(O)C(=O)C=C(O)C1=O [Embelin] (first compound 0.015 µM, partner dose 1.2 µM)	407	14.6	68.2	195	138	77.3	113	112	68.4	110	68.5	113	202	96.9	123	77.2
CS(=O)(=O)c1ccc(C(=O)Nc2ccc(Cl)c(-c3ccccn3)c2)c(Cl)c1 [vismodegib] + N#Cc1c(O)c2c(-c3ccc(-c4ccccc4O)cc3)csc2[nH]c1=O [A769662] (first compound 1 µM, partner dose 2 µM)	72.3	24.2	110	38.9	165	81.3	87.3	64.6	106	64.2	77.1	84.5	89.7	38.2	48.9	204
CC(=O)O[C@@]12CO[C@@H]1C[C@H](O)[C@@]1(C)C(=O)[C@H](O)C3=C(C)[C@@H](OC(=O)[C@H](O)[C@@H](NC(=O)OC(C)(C)C)c4ccccc4)C[C@@](O)([C@@H](OC(=O)c4ccccc4)[C@H]21)C3(C)C [Docetaxel] + c1cc(-c2cnn3cc(-c4ccc(OCCN5CCCCC5)cc4)cnc23)ccn1 [Dorsomorphin] (first compound 0.0001 µM, partner dose 0.4 µM)	219	113	8030	105	664	210	90	198	475	157	346	624	461	140	114	35
CN(c1ncccc1CNc1nc(Nc2ccc3c(c2)CC(=O)N3)ncc1C(F)(F)F)S(C)(=O)=O + c1cc(-c2cnn3cc(-c4ccc(OCCN5CCCCC5)cc4)cnc23)ccn1 [Dorsomorphin] (first compound 0.08 µM, partner dose 0.4 µM)	79.1	15	155	640	57.3	120	89.2	91.9	29.4	76.8	85.4	92.4	65.8	330	39.3	243

Given comma-delimited: entries from further up
Structure (SMILES),cleaved PARP positive nuclei fraction [1] [%],cleaved PARP positive nuclei fraction [2] [%],cleaved PARP positive nuclei fraction [3] [%],cleaved PARP positive nuclei fraction [4] [%],cleaved PARP positive nuclei fraction [5] [%],cleaved PARP positive nuclei fraction [6] [%],cleaved PARP positive nuclei fraction [7] [%],cleaved PARP positive nuclei fraction [8] [%],cleaved PARP positive nuclei fraction [9] [%],cleaved PARP positive nuclei fraction [10] [%],cleaved PARP positive nuclei fraction [11] [%],cleaved PARP positive nuclei fraction [12] [%],cleaved PARP positive nuclei fraction [13] [%],cleaved PARP positive nuclei fraction [14] [%],cleaved PARP positive nuclei fraction [15] [%],cleaved PARP positive nuclei fraction [16] [%]
"Cn1sc(=O)n(Cc2ccccc2)c1=O + COc1ccc2c(c1)CCC1C2CCC2(C)C(NCCCCCCN3C(=O)C=CC3=O)CCC12 [U73122] (first compound 0.4 µM, partner dose 0.4 µM)",36.6,43.9,134,150,149,96.7,60.9,117,147,25.5,51.8,190,122,94.3,78,292
"CC1(C)CCC(c2ccc(Cl)cc2)=C(CN2CCN(c3ccc(C(=O)NS(=O)(=O)c4ccc(N[C@H](CCN5CCOCC5)CSc5ccccc5)c(S(=O)(=O)C(F)(F)F)c4)cc3)CC2)C1 + Cc1cc([N+](=O)[O-])ccc1NS(=O)(=O)c1cc(Cl)ccc1Cl [FH535] (first compound 0.4 µM, partner dose 1 µM)",226,70.4,60.4,1390,1590,3810,627,476,624,67,84.4,362,172,502,268,66.1
